The values below come from patent publication US20030027252A1 (TULARIK, published 2003).

Sequences of proteins named here, by UniProt entry; tags and fusion partners are left off. A change or cut given only in a name is not applied to a line headed by its entry.
UniProt Q969V1: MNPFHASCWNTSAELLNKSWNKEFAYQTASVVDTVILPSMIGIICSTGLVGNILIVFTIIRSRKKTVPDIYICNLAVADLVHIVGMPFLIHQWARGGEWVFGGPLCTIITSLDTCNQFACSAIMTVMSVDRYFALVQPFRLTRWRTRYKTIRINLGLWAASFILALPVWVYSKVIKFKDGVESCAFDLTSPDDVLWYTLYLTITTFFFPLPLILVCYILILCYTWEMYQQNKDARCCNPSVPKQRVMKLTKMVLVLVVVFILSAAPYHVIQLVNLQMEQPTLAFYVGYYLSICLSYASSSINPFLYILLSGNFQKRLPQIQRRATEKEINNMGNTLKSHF
UniProt P20382: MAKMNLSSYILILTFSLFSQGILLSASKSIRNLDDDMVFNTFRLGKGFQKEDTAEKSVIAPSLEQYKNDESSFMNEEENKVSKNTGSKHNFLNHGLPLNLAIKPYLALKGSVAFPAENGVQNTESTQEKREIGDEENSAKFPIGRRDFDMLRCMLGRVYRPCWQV

Results are given in words; binding and its absence hold for the method and conditions named. Some binding calls cover weakened binding; strength is not graded here. Where no end group is shown, it is not given here.

Assay [1] deals with T1, Human TGR342 (human, UniProt Q969V1 1-340). As to the kind of experiment: competition of excess unlabeled MCH against [125I]-MCH on TGR342 membranes.
Assay [2] addresses T1, Human TGR342. Kind of assay: radioligand binding to membranes (FIG. 6).

For “melanin-concentrating hormone (MCH) (from UniProt P20382 147-165) (peptide)”, the binding result in the assay with Human TGR342 [1] is “binds”. Regarding DFDMLRCMLGRVYRPCWQV (peptide, UniProt P20382 147-165, looked up, ends and bridges not checked; also: 125I label, labelled residue not given here, mature) [[^125I]-MCH], the binding result in the assay with Human TGR342 [2] was “binds”.
